These are yes or no findings as the source states them, for the method shown. In cells and extracts the contact can be indirect. Binding calls can cover weak binding; strength is not graded here. Sequences can lack the tags named with a protein.
Target: TAU (human (endogenous in SH-SY5Y))
Experiment: proximity ligation; in situ PLA (Duolink) on fixed SH-SY5Y cells overexpressing FLAG-NDP52^WT or FLAG-NDP52^GE, DMSO (basal) or 100 nM OkA for 1.5 h; rabbit anti-FLAG and mouse anti-TAU

B1: FLAG-NDP52^WT (protein, UniProt Q13137 1-446)
chain: MEETIKDPPTSAVLLDHCHFSQVIFNSVEKFYIPGGDVTCHYTFTQHFIPRRKDWIGIFRVGWKTTREYYTFMWVTLPIDLNNKSAKQQEVQFKAYYLPKDDEYYQFCYVDEDGVVRGASIPFQFRPENEEDILVVTTQGEVEEIEQHNKELCKENQELKDSCISLQKQNSDMQAELQKKQEELETLQSINKKLELKVKEQKDYWETELLQLKEQNQKMSSENEKMGIRVDQLQAQLSTQEKEMEKLVQGDQDKTEQLEQLKKENDHLFLSLTEQRKDQKKLEQTVEQMKQNETTAMKKQQELMDENFDLSKRLSENEIICNALQRQKERLEGENDLLKRENSRLLSYMGLDFNSLPYQVPTSDEGGARQNPGLAYGNPYSGIQESSSPSPLSIKKCPICKADDICDHTLEQQQMQPLCFNCPICDKIFPATEKQIFEDHVFCHSL
binding: binds

B2: FLAG-NDP52^GE (protein, UniProt Q13137 1-446)
chain: MEETIKDPPTSAVLLDHCHFSQVIFNSVEKFYIPGGDVTCHYTFTQHFIPRRKDWIGIFRVGWKTTREYYTFMWVTLPIDLNNKSAKQQEVQFKAYYLPKDDEYYQFCYVDEDGVVRGASIPFQFRPENEEDILVVTTQEEVEEIEQHNKELCKENQELKDSCISLQKQNSDMQAELQKKQEELETLQSINKKLELKVKEQKDYWETELLQLKEQNQKMSSENEKMGIRVDQLQAQLSTQEKEMEKLVQGDQDKTEQLEQLKKENDHLFLSLTEQRKDQKKLEQTVEQMKQNETTAMKKQQELMDENFDLSKRLSENEIICNALQRQKERLEGENDLLKRENSRLLSYMGLDFNSLPYQVPTSDEGGARQNPGLAYGNPYSGIQESSSPSPLSIKKCPICKADDICDHTLEQQQMQPLCFNCPICDKIFPATEKQIFEDHVFCHSL
binding: binds
